Experimental data as given in publication doi:10.1101/2020.09.30.320564.

Assays:
Assay in all cases: EMSA
La-domain N122A (human) = La-domain N122A (human) (UniProt Q9BRS8); settings: protein in an extract; residues 81-182
La-domain R121A (human) = La-domain R121A (human) (UniProt Q9BRS8); settings: protein in an extract; residues 81-182
[1] = target: La-domain + 26 random aa (Fig 4B lane 4) (human) (UniProt Q9BRS8); settings: binding increased; protein in an extract
La-domain delta8 (human) = La-domain delta8 (human) (UniProt Q9BRS8); settings: protein in an extract; residues 81-174
[2] = target: LARP6 full size R121A (human) (UniProt Q9BRS8); settings: protein in an extract; residues 1-491
[3] = target: LARP6 full size K123A (human) (UniProt Q9BRS8); settings: protein in an extract; residues 1-491
[4] = target: La-domain delta16 (human) (UniProt Q9BRS8); settings: protein in an extract; residues 81-166
[5] = target: LARP6 full size N122A (human) (UniProt Q9BRS8); settings: protein in an extract; residues 1-491
La-domain K123A (human) = La-domain K123A (human) (UniProt Q9BRS8); settings: protein in an extract; residues 81-182
[6] = target: truncated La-domain + random sequence 1 (Fig 4B lane 2) (human) (UniProt Q9BRS8); settings: partially restored; protein in an extract
[7] = target: LARP6 full size RN/AA R121A,N122A (human) (UniProt Q9BRS8); settings: protein in an extract; residues 1-491
[8] = target: LARP6 full size RK/AA R121A,K123A (human) (UniProt Q9BRS8); settings: protein in an extract; residues 1-491
LARP6 full size (human) = LARP6 full size (human) (UniProt Q9BRS8); settings: protein in an extract; residues 1-491
[9] = target: La-module RK/AA R121A,K123A (human) (UniProt Q9BRS8); settings: drastically reduced
[10] = target: truncated La-domain + random sequence 2 (Fig 4B lane 3) (human) (UniProt Q9BRS8); settings: partially restored; protein in an extract
[11] = target: LARP6 full size NK/AA N122A,K123A (human) (UniProt Q9BRS8); settings: protein in an extract; residues 1-491
[12] = target: T1, RRM domain, HEK293 (human) (UniProt Q9BRS8); settings: protein in an extract; residues 183-298
T1 sequence (looked up): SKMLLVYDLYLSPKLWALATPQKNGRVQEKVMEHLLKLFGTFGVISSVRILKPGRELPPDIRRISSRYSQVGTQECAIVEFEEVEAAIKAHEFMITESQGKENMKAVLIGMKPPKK

[13] = target: La-domain, HEK293 (human) (UniProt Q9BRS8); settings: protein in an extract; residues 81-182

CACAAGGAGUCUGCAUGUCUAAGUGCUAGACAUGCUCAGCUUUGUG [α2(I) 5'SL]
binding result (La-domain N122A (human)): no binding
binding result (La-domain R121A (human)): no binding
binding result [1]: binds
binding result (La-domain delta8 (human)): no binding
binding signal (% of WT LARP6 (about 50% reduction)) [2]: 50
binding signal (% of WT LARP6 (about 50% reduction)) [3]: 50
binding result [4]: no binding
binding signal (% of WT LARP6 (about 50% reduction)) [5]: 50
binding result (La-domain K123A (human)): no binding
binding result [6]: binds more weakly
binding result [7]: binds more weakly
binding result [8]: binds more weakly
binding signal (% (reference)) (LARP6 full size (human)): 100
binding result [9]: binds more weakly
binding result [10]: binds more weakly
binding result [11]: binds more weakly
binding result [12]: no binding

CCACAAAGAGUCUACAUGUCUAGGGUCUAGACAUGUUCAGCUUUGUGG [α1(I) 5'SL]
binding result (La-domain N122A (human)): no binding
binding result (La-domain R121A (human)): no binding
binding result [13]: binds
binding result (La-domain K123A (human)): no binding

For part of these data: At least one result comes from cells or an extract, where the contact may be indirect. For part of these data: Negatives hold for the conditions tested. For part of these data: Where a protein sequence is shown, tags need not be part of it. For part of these data: For at least one entry, the source does not settle the construct or the ends of the probe. For part of these data: Weaker means in comparison with the reference protein, sequence or condition of that experiment. For part of these data: At least one verdict was read from the data and is not stated in words by the source. For part of these data: Whether high values mean tight binding is not given here for every scale.
